Results are given in words; binding and its absence hold for the method and conditions named. In cells and extracts the contact can be indirect. Some binding calls cover weakened binding; strength is not graded here. Where a sequence is shown, tags or fusion partners need not be part of it. One block for each binder: values may come before it.
Molecular target: T1, GFP-tagged mouse RHBDL4-SA (catalytically inactive serine-144-alanine mutant) (mouse) (UniProt Q8BHC7)
T1 sequence: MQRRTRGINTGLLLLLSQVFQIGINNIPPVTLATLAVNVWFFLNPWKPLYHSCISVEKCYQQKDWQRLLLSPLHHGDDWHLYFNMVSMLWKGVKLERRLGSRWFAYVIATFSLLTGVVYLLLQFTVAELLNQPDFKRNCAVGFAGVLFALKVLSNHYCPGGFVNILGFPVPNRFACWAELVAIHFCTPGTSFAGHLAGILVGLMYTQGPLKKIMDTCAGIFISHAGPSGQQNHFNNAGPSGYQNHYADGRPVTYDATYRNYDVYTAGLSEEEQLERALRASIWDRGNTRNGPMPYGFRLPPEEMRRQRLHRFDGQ
Assay: co-IP

binding: binds
B1: STT3A (protein, UniProt P46977 1-705)
chain: MTKFGFLRLSYEKQDTLLKLLILSMAAVLSFSTRLFAVLRFESVIHEFDPYFNYRTTRFLAEEGFYKFHNWFDDRAWYPLGRIIGGTIYPGLMITSAAIYHVLHFFHITIDIRNVCVFLAPLFSSFTTIVTYHLTKELKDAGAGLLAAAMIAVVPGYISRSVAGSYDNEGIAIFCMLLTYYMWIKAVKTGSICWAAKCALAYFYMVSSWGGYVFLINLIPLHVLVLMLTGRFSHRIYVAYCTVYCLGTILSMQISFVGFQPVLSSEHMAAFGVFGLCQIHAFVDYLRSKLNPQQFEVLFRSVISLVGFVLLTVGALLMLTGKISPWTGRFYSLLDPSYAKNNIPIIASVSEHQPTTWSSYYFDLQLLVFMFPVGLYYCFSNLSDARIFIIMYGVTSMYFSAVMVRLMLVLAPVMCILSGIGVSQVLSTYMKNLDISRPDKKSKKQQDSTYPIKNEVASGMILVMAFFLITYTFHSTWVTSEAYSSPSIVLSARGGDGSRIIFDDFREAYYWLRHNTPEDAKVMSWWDYGYQITAMANRTILVDNNTWNNTHISRVGQAMASTEEKAYEIMRELDVSYVLVIFGGLTGYSSDDINKFLWMVRIGGSTDTGKHIKENDYYTPTGEFRVDREGSPVLLNCLMYKMCYYRFGQVYTEAKRPPGFDRVRNAEIGNKDFELDVLEEAYTTEHWLVRIYKVKDLDNRGLSRT

binding: binds
B2: RPN1 (protein, UniProt P04843 24-607)
chain: ASSEAPPLINEDVKRTVDLSSHLAKVTAEVVLAHLGGGSTSRATSFLLALEPELEARLAHLGVQVKGEDEEENNLEVRETKIKGKSGRFFTVKLPVALDPGAKISVIVETVYTHVLHPYPTQITQSEKQFVVFEGNHYFYSPYPTKTQTMRVKLASRNVESYTKLGNPTRSEDLLDYGPFRDVPAYSQDTFKVHYENNSPFLTITSMTRVIEVSHWGNIAVEENVDLKHTGAVLKGPFSRYDYQRQPDSGISSIRSFKTILPAAAQDVYYRDEIGNVSTSHLLILDDSVEMEIRPRFPLFGGWKTHYIVGYNLPSYEYLYNLGDQYALKMRFVDHVFDEQVIDSLTVKIILPEGAKNIEIDSPYEISRAPDELHYTYLDTFGRPVIVAYKKNLVEQHIQDIVVHYTFNKVLMLQEPLLVVAAFYILFFTVIIYVRLDFSITKDPAAEARMKVACITEQVLTLVNKRIGLYRHFDETVNRYKQSRDISTLNSGKKSLETEHKALTSEIALLQSRLKTEGSDLCDRVSEMQKLDAQVKELVLKSAVEAERLVAGKLKKDTYIENEKLISGKRQELVTKIDHILDAL

From doi:10.1101/850776
